{"source": "paper PMC5997791", "binders": {"B1": {"name": "caveolin-1 (protein, UniProt P49817 1-178)", "chain": "MSGGKYVDSEGHLYTVPIREQGNIYKPNNKAMADEVTEKQVYDAHTKEIDLVNRDPKHLNDDVVKIDFEDVIAEPEGTHSFDGIWKASFTTFTVTKYWFYRLLSTIFGIPMALIWGIYFAILSFLHIWAVVPCIKSFLIEIQCISRVYSIYVHTFCDPLFEAIGKIFSNIRISTQKEI"}}, "target": "T1, NADPH oxidase p47phox (mouse (endogenous in RAW264.7)) (UniProt Q09014)", "T1 sequence": "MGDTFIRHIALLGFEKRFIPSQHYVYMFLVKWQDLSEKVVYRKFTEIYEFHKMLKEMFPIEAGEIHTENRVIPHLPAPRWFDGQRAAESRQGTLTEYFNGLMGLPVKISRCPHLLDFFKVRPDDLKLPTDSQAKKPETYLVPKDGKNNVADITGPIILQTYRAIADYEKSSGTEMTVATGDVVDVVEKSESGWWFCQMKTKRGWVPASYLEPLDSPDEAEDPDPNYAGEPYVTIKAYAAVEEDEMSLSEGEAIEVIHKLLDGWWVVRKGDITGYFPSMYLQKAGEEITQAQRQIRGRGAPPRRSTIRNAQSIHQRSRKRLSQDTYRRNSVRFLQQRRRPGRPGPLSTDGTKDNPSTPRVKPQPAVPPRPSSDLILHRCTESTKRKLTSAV", "assay": "co-IP; RAW264.7 cells stimulated with different doses of oxLDL for 4 h or left untreated; NP-40 lysis buffer (50 mM HEPES pH 7.4, 150 mM NaCl, 1% NP-40, 1 mM EDTA); lysates incubated with anti-p47 protein A/G agarose beads overnight at 4°C; washed four times with lysis buffer with 300 mM NaCl added; Western blotting", "note": "These are yes or no findings as the source states them, for the method shown. In cells and extracts the contact can be indirect. Some results given as binding are weak or reduced against the parent protein; the word gives no strength.", "data": [{"binder": "B1", "values": [{"measurement": "binding", "result": "binds"}]}]}
